Experimental findings from publication PMC6726731, “A pretargeted multimodal approach for image-guided resection in a xenograft model of colorectal cancer” (EJNMMI Research, 2019) are described below.

Usually tissue uptake stands for the share of the injected amount in each gram of the tissue.

The structures appear in SMILES notation.

This data set is described as follows: Biodistribution (γ-counting) in s.c. CEA-negative SK-RC-52 control tumors after TF2 pretargeting. Particulars: female, BALB/cAnNRj-Foxn1^nu/nu nude, mouse, in vivo, iv, total radioactivity. The text has this:
Female BALB/cAnNRj-Foxn1^nu/nu nude mice (7–9 weeks-old, 18–22-g body weight; Janvier), housed in individually ventilated cages (5 mice per cage) under non-sterile standard conditions with free access to standard animal chow and water, were adapted to laboratory conditions for 1 week before experimental use. For the biodistribution and microSPECT/CT experiments, mice were subcutaneously inoculated with 2 × 10^6 LS174T cells (left flank) and 2 × 10^6 SK-RC-52 cells (right flank) both suspended in 200 μL RPMI-1640 medium. For the image-guided resection experiment, intraperitoneal tumor growth was induced by an intraperitoneal injection of 3 × 10^5 LS174T cells suspended in 200 μL RPMI-1640 medium. […]
Three different dose levels (0, 0.8, and 8 nmol) of TF2 or controls were tested with a 1:20 TF2:HSG-peptide ratio of each HSG-peptide in two subsets of 30 mice (5 mice per group). […] For this purpose, tissues of interest (tumor, muscle, lung, spleen, kidney, liver, pancreas, stomach, and duodenum) were dissected and weighed after which activity was measured in a shielded 3-in.-well-type γ-counter (Perkin-Elmer, Boston, MA, USA). […] For calculation of the uptake of activity in each tissue as a fraction of the injected activity, three aliquots of the injection dose were counted in the γ-counter simultaneously.

Regarding `NC(=O)[C@@H](CCCCNC(=O)CNC(=O)CCC(=O)NCCc1c[nH]cn1)NC(=O)[C@@H](CCC(=O)O)NC(=O)[C@@H](CCCCNC(=O)CNC(=O)CCC(=O)NCCc1c[nH]cn1)NC(=O)[C@@H](Cc1ccc(O)cc1)NC(=O)CN1CCN(CC(=O)O)CCN(CC(=O)O)CCN(CC(=O)O)CC1` [^111In-IMP-288, metal not drawn], the tissue uptake at 24 h was found to be 0.07 %ID/g.
